# Measured values from PubChem BioAssay AID2685 (National Center for Advancing Translational Sciences (NCATS), 2010).
# The list shows a part of the results. These are further read-outs of the screen, such as a control signal, another cell line or another target. No call is given for them. Compounds called inactive in the main read-out are mostly missing here. The note in brackets gives the kind of curve behind each potency; many fits are weak.
# Test: qHTS Assay for Lipid Storage Modulators in Drosophila S3 Cells;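 for cell number change: cells counted by Cell Tracker Red CMTPX staining in the red channel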
# Settings: BODIPY lipid droplet fluorescence, 18-24 h; for cell number change: measured here: cell count max response, cells fed with added oleic acid
# Summary of the method: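 Drosophila S3 cells loaded with oleic acid (400 uM, as added) and compounds at several concentrations; lipid droplets imaged by 488-nm laser-scanning cytometry, 500–530 nm intensity and object ratio to cell channel. Percent activity normalized to 20 uM Triacsin C.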
# [1] = measured here: lipid fluorescence (Fed channel) AC50, cells fed with added oleic acid
# [2] = measured here: cell number channel AC50, cells fed with added oleic acid
Structure (SMILES),cell number change,AC50 [1],AC50 [2]
CC(C)c1ccc(NC(=O)Nc2cnccn2)cc1,31.2%,"20.6 µM [rising, partial curve]",
O=C(NCC1CCCO1)c1cn(Cc2ccccc2)nc1-c1ccc(Cl)cc1 (configuration not stated),-1.81%,"0.00461 µM [falling, full curve, poor fit]",
CC(=O)Nc1ccc(NC(=O)CS(=O)(=O)c2cn(CC(=O)N3CCCC3)c3ccccc23)cc1,33.6%,,"0.146 µM [rising, full curve, poor fit]"
COc1ccccc1CN(Cc1cc2cc(C)ccc2[nH]c1=O)Cc1nnnn1Cc1ccco1,-30.1%,"0.0164 µM [rising, full curve, poor fit]","10.3 µM [falling, partial curve]"
CC(=O)c1nnn(-c2c(F)cccc2F)c1C,,,"0.651 µM [falling, single point]"
O=C(CC(Cc1ccccc1)C(=O)O)Nc1ccccc1 (configuration not stated),38.7%,,"29.1 µM [rising, single point]"
CC1CCN(CC(=O)Nc2cc(C(F)(F)F)ccc2Cl)CC1,3.82%,"4.11 µM [rising, single point]",
COc1ccc(C(CC(=O)N2CCN(c3ccccc3)CC2)c2c(OC)cc(OC)c3ccc(=O)oc23)cc1 (configuration not stated),6.38%,"2.06 µM [rising, partial curve]",
Cc1cc(=O)oc2c3c(cc(OCC(=O)NCC4CCC(C(=O)O)CC4)c12)OC(C)(C)CC3 (configuration not stated),-20.9%,"0.92 µM [falling, full curve, poor fit]",
Cc1ccc(CN2CCN(C(=O)CC(C)C)CC2)cc1,-21.5%,,
O=C(NC1CC1)C1=C[C@@H](c2ccc3c(c2)OCO3)C[C@@H](OCCCCO)O1,-14.4%,"23.1 µM [rising, single point]",
CCOC(=O)CN1C2=NCCN2c2ccccc21,-109%,"29.1 µM [falling, partial curve]","25.9 µM [falling, partial curve]"
Cc1ccc(C)c(CN2CCC(CNC(=O)Nc3ccc(C)c(C)c3)CC2)c1,-6.94%,"6.51 µM [falling, single point]",
CCOC(=O)c1c(NC(=O)/C=C/C(=O)O)sc(C)c1-c1ccc(C(C)(C)C)cc1,-20%,"1.26 µM [falling, full curve, poor fit]",
COc1ccc(CCNc2ncccc2C#N)cc1OC,18.1%,"0.326 µM [falling, partial curve, poor fit]",
Cc1c(Cl)cccc1NC(=S)N1CCCCCC1,-10.9%,"29.1 µM [falling, single point]",
Cc1ccccc1OCC(=O)OCC(=O)NC1CC1,-2.01%,"0.00411 µM [falling, full curve, poor fit]",
COc1cc2c(cc1OC)C1CC(=O)C(CC(C)C)CN1CC2 (configuration not stated),51.2%,"0.92 µM [rising, full curve]","9.2 µM [rising, partial curve]"
O=C(O)c1ncn(Cc2ccccc2)c1C(=O)O,1.23%,"2.91 µM [falling, full curve, poor fit]",
Cc1cccc(-n2c(O)c(C=NC3CCS(=O)(=O)C3)c3ccccc3c2=O)c1 (configuration not stated),-12.3%,"6.51 µM [rising, single point]",
O=C(O)c1ccc(N2CCS(=O)(=O)CC2)cc1,-30.2%,"8.2 µM [falling, single point]","6.51 µM [rising, single point]"
Cc1ccc(C(C[N+](=O)[O-])c2c(C)[nH]n(-c3ccccc3)c2=O)cc1 (configuration not stated),-21.6%,"16.4 µM [falling, single point]",
COC(=O)c1cn(NC(=O)c2cc(OC)c(OC)c(OC)c2)c(=O)c2ccccc12,34.6%,,"4.61 µM [rising, partial curve, poor fit]"
COCCOC(=O)C1=C(C)NC(=O)NC1c1ccc(-c2ccc(F)cc2)o1 (configuration not stated),23.5%,"2.59 µM [rising, partial curve]","1.64 µM [rising, full curve, poor fit]"
Cc1nn(-c2ccccc2)c2nc(=O)n(-c3ccccc3)cc12,9.55%,"2.31 µM [rising, full curve]",
O=c1c2ccccc2nc(N2CCN(c3ccccc3)CC2)n1Cc1ccccc1,42.4%,"0.411 µM [rising, full curve]","0.82 µM [rising, full curve]"
Nc1ccc(S(=O)(=O)NC(=O)c2ccccc2)cc1,33.5%,"18.4 µM [falling, single point]","29.1 µM [rising, single point]"
CC1(C)CCCN(C(=O)c2ccc3c(c2NCCO)C(=O)c2ccccc2C3=O)C1,-33.9%,"2.91 µM [falling, full curve]","6.51 µM [falling, full curve, poor fit]"

Structure (SMILES),cell number change,AC50 [1],AC50 [2]
COc1cc(SC)ccc1C(=O)Nc1ccc2c(c1)OCCO2,38.3%,"2.91 µM [rising, full curve]","2.06 µM [rising, full curve, poor fit]"
COc1cccc(-n2nnnc2SCC(=O)Nc2cccc(NC(C)=O)c2)c1,5.59%,,"0.231 µM [rising, full curve, poor fit]"
c1ccc(-n2ncc3c(NCc4ccccn4)ncnc32)cc1,,,"0.731 µM [rising, single point]"
COc1ccc(CCNC(=O)COC(=O)c2ccc(Br)o2)cc1OC,-67.5%,"16.4 µM [falling, partial curve]","8.2 µM [falling, partial curve]"
O=C1C=C(Nc2ccc(O)cc2)C(=O)c2ccccc21,-34.5%,,"32.6 µM [falling, single point]"
O=C(CCCOc1ccccc1)OCn1nnc2ccccc2c1=O,25.5%,,"2.91 µM [rising, single point]"
O=C(O)CSCC(=O)NCc1ccccc1,-36.2%,"2.06 µM [falling, full curve]","0.206 µM [falling, full curve]"
CC(CN1CCOCC1)OC(=O)c1ccc(Cl)cc1Cl (configuration not stated),1.1%,,
CCCC[C@@]1(C2CCCC2)Cc2cc(OCC(=O)O)c(Cl)c(Cl)c2C1=O,-21.7%,"0.58 µM [falling, partial curve]","0.411 µM [falling, full curve, poor fit]"
COc1ccc(NC(C)C(=O)Nc2ccc(C#N)cc2)cc1Cl (configuration not stated),70.8%,,"11.6 µM [rising, partial curve, poor fit]"
CCOc1ccc(NC(=S)N2CCC(C(O)(c3ccccc3)c3ccccc3)CC2)cc1,1.76%,"0.731 µM [rising, full curve, poor fit]",
O=C(COC(=O)c1ccc(O)cc1)NC(=O)NCc1ccccc1,11.3%,"0.0291 µM [rising, full curve, poor fit]","0.00517 µM [rising, full curve, poor fit]"
O=C(CSc1nnc(-c2ccc(Cl)cc2)o1)N1CCOCC1,3.75%,"18.4 µM [rising, single point]",
COc1ccc(OC)c2sc(N(CCCN(C)C)C(=O)CCS(=O)(=O)c3ccccc3)nc12,-74.4%,"29.1 µM [falling, single point]","8.2 µM [falling, partial curve]"
O=C(Nc1ccc2c(c1)OCCO2)C1CCN(c2nnnn2-c2ccccc2)CC1,-9.22%,,
Cc1ccc(C(=O)Nc2ccccc2C(=O)N2CCCC2)cc1[N+](=O)[O-],-42.2%,,"29.1 µM [falling, single point]"
CCn1c(SCC(=O)Nc2nc(C)cs2)nnc1C(NC(=O)c1ccccc1Cl)C(C)C (configuration not stated),-80.5%,"8.2 µM [falling, partial curve, poor fit]","10.3 µM [falling, partial curve]"
COc1cccc(C(=O)Nc2ncc3c(n2)CC(c2ccc(OC)cc2OC)CC3=O)c1 (configuration not stated),53%,"2.31 µM [rising, single point]","29.1 µM [rising, single point]"
COc1ccc(Nc2nc(Nc3ccc(OC)cc3)nc(SC3=NCCS3)n2)cc1,-11.9%,"6.51 µM [rising, single point]",
CC1=C(C(=O)OCCc2ccccc2)C(c2ccsc2)NC(=O)N1C (configuration not stated),-14.4%,"29.1 µM [rising, single point]",
COc1ccc2[nH]c(O)c(N=O)c2c1,92%,"0.411 µM [falling, single point]","29.1 µM [rising, partial curve, poor fit]"
Cc1ccc(CNC(C)c2ccccc2)cc1 (configuration not stated),30.2%,"0.058 µM [falling, full curve, poor fit]","29.1 µM [rising, single point]"
COc1ccc(OC)c(NC(=O)Cn2c(-c3ccc(Cl)cc3)noc2=O)c1,-20.5%,"6.51 µM [rising, single point]",
CC(C(=O)Nc1cccc(S(=O)(=O)N2CCOCC2)c1)N1CCN(C/C=C/c2ccccc2)CC1 (configuration not stated),,,"0.231 µM [rising, full curve, poor fit]"
CCOC(=O)C1CCCN(C(=O)c2cc3cc(OC)c(OC)cc3[nH]2)C1 (configuration not stated),-22.7%,,
c1ccc2c(NCCCN3CCOCC3)c3ccccc3nc2c1,-34.4%,,"2.91 µM [falling, full curve, poor fit]"
COc1ccc(-n2ccnc2SCC(=O)NCc2ccc(F)cc2)c(OC)c1,-13.5%,"6.51 µM [falling, single point]","2.91 µM [falling, single point]"

# For reference, two of the compounds above.
Structure (SMILES),cell number change,AC50 [1],AC50 [2]
O=C(O)c1ncn(Cc2ccccc2)c1C(=O)O,1.23%,"2.91 µM [falling, full curve, poor fit]",
Cc1cccc(-n2c(O)c(C=NC3CCS(=O)(=O)C3)c3ccccc3c2=O)c1 (configuration not stated),-12.3%,"6.51 µM [rising, single point]",
